Reference: PubChem BioAssay AID504764 (Drosophila RNAi Screening Center, 2011)

Purpose: 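Genes whose knock-down alters Notch-dependent transcription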 (primary screen)
Cells: Drosophila Kc167 cells
Reagent: long dsRNA against Drosophila genes
Timing: about 5 days (4 days dsRNA, then 24 h after transfection)
Conditions: transfection of constitutively active membrane-tethered Notch lacking the extracellular domain, read 24 h later
Read-out: 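Light from a Notch-responsive E(spl)m3 luciferase reporter under active Notch, with control-promoter and no-Notch reporter wells to normalise; raw counts from paired wells a and b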
Scale: induced reporter light, run 1, well a and induced reporter light, run 1, well b: higher = more light from the Notch target reporter with active Notch; control promoter light, run 1, well a and control promoter light, run 1, well b: higher = more light from the viral control promoter (cell number, transfection, viability); uninduced reporter light, run 1, well a: higher = more light from the Notch target reporter without active Notch
Hit rule: 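Hit if the duplicate-averaged log2 ratio of induced to control-promoter light gives a plate-wise z beyond ±2, or induced to uninduced beyond ±1.8; weak-control or discordant-duplicate wells dropped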
Calls: active = modifier hit (raised or lowered Notch signal); inactive = not a hit
The screen tested about 22,000 reagents; this is an unselected part of those with a known target gene and a result. In the full data, 403 (1.9%) got an active call. 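Unnormalised raw counts per well; ratio z-scores behind the hit calls and whether each hit raises or lowers signal are not deposited.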 Reagents against one gene are numbered here. A plus sign joins genes that one reagent is predicted to hit. Reagent sequences are not shown. Not given: the amount of reagent.

| gene | reagent | induced reporter light, run 1, well a | induced reporter light, run 1, well b | control promoter light, run 1, well a | control promoter light, run 1, well b | uninduced reporter light, run 1, well a | Outcome |
| --- | --- | --- | --- | --- | --- | --- | --- |
| Dus2 | 1 | 2.36e5 | 1.82e5 | 2.79e5 | 3.03e5 | 13280 | inactive |
| CG5171 | 1 | 2.02e5 | 2.15e5 | 2.65e5 | 2.76e5 | 18755 | inactive |
| woc | 1 | 1.56e5 | 2.03e5 | 2.29e5 | 2.92e5 | 11188 | inactive |
| CG6028 | 1 | 1.63e5 | 1.27e5 | 1.91e5 | 2.36e5 | 11615 | inactive |
| CG14367 | 1 | 2.07e5 | 2.13e5 | 2.12e5 | 1.95e5 | 17245 | inactive |
| sni | 1 | 1.87e5 | 1.58e5 | 1.74e5 | 1.90e5 | 11530 | inactive |
| Grik | 1 | 1.35e5 | 1.32e5 | 1.72e5 | 1.87e5 | 11840 | inactive |
| Grik | 2 | 2.25e5 | 1.95e5 | 2.45e5 | 2.50e5 | 14450 | inactive |
| eve | 1 | 1.69e5 | 1.84e5 | 2.26e5 | 2.34e5 | 18410 | inactive |
| uno | 1 | 1.92e5 | 1.73e5 | 2.59e5 | 1.90e5 | 17610 | inactive |
| Vmat + CG13330 | 1 | 91720 | 97850 | 73045 | 79420 | 7405 | inactive |
| pcs | 1 | 1.65e5 | 1.69e5 | 1.94e5 | 2.15e5 | 15075 | inactive |
| Hus1-like | 1 | 1.27e5 | 1.32e5 | 1.41e5 | 1.46e5 | 8470 | inactive |
| CG10194 | 1 | 2.16e5 | 2.30e5 | 2.26e5 | 2.05e5 | 20070 | inactive |
| CG11279 | 1 | 1.53e5 | 1.11e5 | 1.51e5 | 1.35e5 | 8605 | inactive |
| GMF | 1 | 2.14e5 | 1.87e5 | 1.92e5 | 1.83e5 | 14710 | inactive |
| CG13898 | 1 | 1.21e5 | 1.10e5 | 2.45e5 | 2.27e5 | 7965 | inactive |

Taken from above:
eve, induced reporter light, run 1, well a = 1.69e5
Vmat + CG13330, Outcome = inactive
woc, control promoter light, run 1, well b → 2.92e5
CG14367, Outcome: inactive
uno, Outcome: inactive

Additional reagents follow.
| gene | reagent | induced reporter light, run 1, well a | induced reporter light, run 1, well b | control promoter light, run 1, well a | control promoter light, run 1, well b | uninduced reporter light, run 1, well a | Outcome |
| --- | --- | --- | --- | --- | --- | --- | --- |
| CG17036 | 1 | 2.32e5 | 2.35e5 | 2.07e5 | 2.72e5 | 21490 | inactive |
| CG34430 | 1 | 2.08e5 | 1.95e5 | 2.35e5 | 2.45e5 | 17535 | inactive |
| vkg | 1 | 97620 | 69775 | 70395 | 61860 | 5570 | inactive |
| CG34112 | 1 | 1.70e5 | 1.27e5 | 1.29e5 | 1.03e5 | 8232 | inactive |
| CG2121 | 1 | 1.93e5 | 1.87e5 | 1.74e5 | 1.56e5 | 14938 | inactive |
| CG2121 | 2 | 2.09e5 | 1.81e5 | 2.35e5 | 2.39e5 | 16770 | inactive |
| ENGase | 1 | 1.65e5 | 1.95e5 | 2.89e5 | 2.61e5 | 12270 | inactive |
| ENGase | 2 | 44645 | 39515 | 52010 | 52520 | 6695 | inactive |
| Ten-m | 1 | 99530 | 93910 | 1.15e5 | 93560 | 6990 | inactive |
| Ten-m | 2 | 97735 | 1.07e5 | 1.11e5 | 1.00e5 | 9520 | inactive |
| Pdf | 1 | 2.13e5 | 1.53e5 | 3.55e5 | 2.92e5 | 11895 | inactive |
| Tsp42Ee | 1 | 1.58e5 | 1.71e5 | 2.34e5 | 1.96e5 | 13955 | inactive |
| RpS20 | 1 | 29135 | 25960 | 35310 | 37085 | 2145 | inactive |
| CG9698 | 1 | 1.31e5 | 1.11e5 | 1.67e5 | 1.41e5 | 10550 | inactive |
| mey | 1 | 1.83e5 | 2.16e5 | 2.79e5 | 2.88e5 | 14000 | inactive |
| Sqor | 1 | 1.23e5 | 1.28e5 | 1.20e5 | 56300 | 13325 | inactive |
| CG13727 | 1 | 1.68e5 | 1.54e5 | 2.01e5 | 1.78e5 | 5885 | inactive |
| CG3285 | 1 | 78845 | 92280 | 82025 | 83275 | 5680 | inactive |
| Spn42Dd | 1 | 2.25e5 | 2.00e5 | 2.53e5 | 2.14e5 | 19915 | inactive |
| CG34244 | 1 | 1.75e5 | 2.09e5 | 2.02e5 | 2.93e5 | 19282 | inactive |
| CG30380 | 1 | 71605 | 71700 | 96920 | 90105 | 3810 | inactive |
| PolZ2 | 1 | 88685 | 1.07e5 | 82020 | 70535 | 4920 | inactive |
| S-Lap8 | 1 | 64015 | 75945 | 95985 | 94995 | 4278 | active |
| Act5C | 1 | 1.14e5 | 1.35e5 | 1.62e5 | 1.41e5 | 8065 | inactive |
| CG12835 (retired record) | 1 | 1.67e5 | 1.62e5 | 2.36e5 | 2.05e5 | 14945 | inactive |
| Jhbp1 | 1 | 90475 | 71495 | 1.12e5 | 95500 | 9605 | inactive |
| ics | 1 | 2.27e5 | 2.67e5 | 1.98e5 | 2.22e5 | 17590 | inactive |
| ymp | 1 | 1.83e5 | 2.09e5 | 1.87e5 | 1.76e5 | 17900 | inactive |
| ymp | 2 | 1.47e5 | 1.91e5 | 1.77e5 | 1.71e5 | 14335 | inactive |
| CG6712 | 1 | 2.96e5 | 2.80e5 | 2.02e5 | 2.24e5 | 16365 | inactive |
| c-cup | 1 | 1.28e5 | 1.16e5 | 1.29e5 | 1.02e5 | 11520 | inactive |
| CG10587 | 1 | 1.29e5 | 95915 | 1.07e5 | 85205 | 9550 | inactive |
| CG14054 | 1 | 82595 | 91640 | 1.63e5 | 1.84e5 | 8575 | inactive |
